# Library screen at single concentrations

The values are deposited in ChEMBL (CHEMBL3988442, “University of Dundee, Small-Polar-MMV Screening Library” (2021)).

The filed quantity is “Percent Effect” (%).
How 0% and 100% were set is not recorded. Most values in the screen are low, and negative values occur.
Compounds were drawn at random from those tested, without regard to their results.

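Whole-parasite assay of Trypanosoma brucei over 72 hours; the read-out is not stated. Compounds at 30 µM. Higher reads as stronger inhibition (inferred: compounds with an IC50 in retests scored well above the rest). Values scatter widely below zero; nearly all retest evidence comes from the higher of the two concentrations used. About 64,000 compounds were tested under these conditions; 1.5% (about 940) showed 50% or more at least once.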

{"compound": "O=C(NC(CC(F)(F)F)c1ccc(Cl)cc1)c1nc(=O)[nH][nH]1", "stereo": "stereo not given", "percent effect": -51.03}
{"compound": "Cc1nc(CN(C)Cc2cn[nH]c2-c2ccc(F)cc2)c[nH]1", "percent effect": -12.38}
{"compound": "COC[C@@H]1CCC[C@]12CN(S(=O)(=O)c1cccs1)CCO2", "percent effect": -59.39}
{"compound": "COc1ccc(C)cc1CNC(=O)C1=NN(c2ccccc2)C(=O)CN1", "percent effect": 39.01}
{"compound": "O=C1CCCN1CCCNCc1cc(O)c2cccc(Cl)c2n1", "percent effect": -4.911}
{"compound": "[H][C@]12CCN(C(=O)N3CCOCC3)C[C@@]1([H])OCCN(S(C)(=O)=O)C2", "percent effect": -93.06}
{"compound": "c1cc2c(cc1C[C@@H]1CC[C@H](CN3CCCOCC3)O1)OCO2", "percent effect": -11.53}
{"compound": "CCCN1CCC(Cc2noc(-c3ncccc3C)n2)CC1", "percent effect": -2.537}
{"compound": "CNC(=O)c1ccc2c(OC)n(C)nc2c1", "percent effect": 18.97}
{"compound": "COC(=O)CC(c1cccc(OC(F)F)c1)c1oc(C)cc(=O)c1O", "stereo": "stereo not given", "percent effect": -6.944}
{"compound": "CN(C)C(=O)c1n[nH]c2c1CN(Cc1nccs1)CC2.O=C(O)C(F)(F)F", "percent effect": -97.77}
{"compound": "CCN(C)c1ncc2c(c1C(=O)O)CCN(C1CCOC1)C2.O=C(O)C(F)(F)F.O=C(O)C(F)(F)F", "stereo": "stereo not given", "percent effect": -45.81}
{"compound": "COCC(=O)N(C)Cc1ccc(F)c(F)c1", "percent effect": -16.11}
{"compound": "Cc1ccccc1-c1cc(NC(=O)Cn2ccccc2=O)n(C)n1", "percent effect": 10.32}
{"compound": "Cn1cc(C2CCCN2C(=O)c2cnc(C3CC3)s2)cn1", "stereo": "stereo not given", "percent effect": -42.9}
{"compound": "Fc1ccc(C(NCc2nnc(C3CC3)o2)C2CCC2)cc1", "stereo": "stereo not given", "percent effect": -41.94}
{"compound": "O=C(NCc1nnc2n1CCCCC2)N1CCc2sccc2C1", "percent effect": 15.34}
{"compound": "Cc1noc(C)c1CC(=O)N1CCCC(c2noc(C(C)C)n2)C1", "stereo": "stereo not given", "percent effect": -8.792}
{"compound": "[H][C@@]12CCN(S(C)(=O)=O)[C@@]1([H])CCN2C(=O)c1cnoc1C", "percent effect": 97.42}
{"compound": "COCCNC(=O)Nc1cc2c(cc1SC)OCCO2", "percent effect": -4.016}
{"compound": "[H][C@]12CC[C@]([H])(CN(S(C)(=O)=O)C1)N(Cc1csc(C(C)=O)c1)C2", "percent effect": 91.04}
{"compound": "O=C(O)C(F)(F)F.[H][C@@]12COC[C@@H](C(=O)N3CCCCO3)[C@]1([H])CN(C1CCCC1)C2", "percent effect": -12.69}
{"compound": "O=C(O)C(F)(F)F.O=C(O)C(F)(F)F.[H][C@@]12CN(Cc3ccco3)C[C@]1([H])[C@H](OC)CCN2Cc1c(C)noc1C", "percent effect": -55.3}
{"compound": "O=C(Cc1cccnc1)N1CCC2(CC1)CCN(C1CCOCC1)CC2.O=C(O)C(F)(F)F.O=C(O)C(F)(F)F", "percent effect": -42.54}
{"compound": "NCCn1nc(C2CCN(Cc3ccc(Cl)c(Cl)c3)C2)c2nccnc21", "stereo": "stereo not given", "percent effect": 9.26}
{"compound": "Cc1ccc(CNC2(Cc3cc(CO)on3)COC2)o1", "percent effect": -2.469}
{"compound": "CCn1nc(C)c(NC(=O)C(C)C)c1C", "percent effect": 3.896}
{"compound": "O=C1CCCN1Cc1ncn2c1CN(C(=O)c1cccc(F)c1)CCC2", "percent effect": -19.21}
{"compound": "CN(C)C(C(=O)N1CCC(N2CCSCC2)CC1)c1ccccc1F", "stereo": "stereo not given", "percent effect": -5.27}
{"compound": "Cc1cc(NC(=O)NC2CCCc3c2cnn3CCO)n(C)n1", "stereo": "stereo not given", "percent effect": -12.51}
{"compound": "CCCC(=O)N1CCC(c2ncc3c(n2)CCNC3)CC1", "percent effect": 5.984}
{"compound": "Cc1cccc(CN2CCC3(CC2)COC(COCC2CC2)C3)n1", "stereo": "stereo not given", "percent effect": 8.953}
{"compound": "Cc1cc(C(=O)N(C)Cc2cnn(C)c2)c(NC(=O)C(C)(C)C)s1", "percent effect": -17.26}
{"compound": "Cn1cc(NC(=O)CNC(=O)N2CCN(c3ccc(F)cc3)CC2)cn1", "percent effect": 5.738}
{"compound": "Cc1nccn1CCN(C)C(=O)C1CCN(C(=O)C2CCC2)CC1", "percent effect": -10.56}
{"compound": "COc1cc(N2CCn3cc(CNc4ccccn4)nc3C2)ncn1", "percent effect": -1.725}
{"compound": "O=C(NC1CCOCC1)C1CC(=O)N(Cc2ccccn2)C1", "stereo": "stereo not given", "percent effect": 11.72}
{"compound": "CC(=O)N(Cc1ncc(C)o1)C1CCN(CCn2cccn2)C1", "stereo": "stereo not given", "percent effect": -43.52}
{"compound": "COC(=O)CN1CCCn2nc(CCC(=O)N3CCCC3)cc2C1", "percent effect": -11.03}
{"compound": "O=C(CCn1cnc2ccccc21)N1CCN2CCCCC2C1", "stereo": "stereo not given", "percent effect": -50.35}
{"compound": "CN(C)C(=O)c1cc2c(nc1NCC1CC1)CCNCC2", "percent effect": -109.7}
{"compound": "O=C(CCCN1CCOCC1)N1CCCC(CO)(CC2CC2)C1", "stereo": "stereo not given", "percent effect": -6.923}
{"compound": "Cc1nn(C)c2c(N3CCN(C(=O)C4CCCO4)CC3)ncnc12", "stereo": "stereo not given", "percent effect": 2.93}
{"compound": "O=C(O)C(F)(F)F.O=C(O)C(F)(F)F.[H][C@]12C[C@@H](Cn3cncn3)N(C(C)=O)[C@@]1([H])CCN(Cc1ccccn1)C2", "percent effect": -23.93}
{"compound": "Cc1cc(C)c2c(N(C)CC3COCCO3)ncnc2n1", "stereo": "stereo not given", "percent effect": -91.63}
{"compound": "CC(SCCS(C)(=O)=O)c1nc(Cc2ccccc2)no1", "stereo": "stereo not given", "percent effect": 0.9948}
{"compound": "Cc1ccoc1C(=O)N1CCc2ncnc(-c3cnn(C)c3)c2CC1", "percent effect": -44.95}
{"compound": "Cn1cc(N2CC3(CCN(Cc4ccoc4)CC3)OCC2=O)cn1.O=C(O)C(F)(F)F", "percent effect": -14.91}
{"compound": "Cc1nn(C)c(Cl)c1C1CCCN1C(=O)c1cc(C2CC2)on1", "stereo": "stereo not given", "percent effect": 5.974}
{"compound": "O=c1cc(N2CCCCC2)cnn1C[C@H](O)CO", "percent effect": -3.496}
{"compound": "Cl.c1cc(CNCc2ccc(Cn3cncn3)cc2)c2c(c1)OCCO2", "percent effect": -33.81}
{"compound": "Cc1cc(CNC(=O)NC(C)c2ccc(N3CCOCC3)cc2)no1", "stereo": "stereo not given", "percent effect": -2.6}
{"compound": "COc1ccc(-c2noc(C3CC(C(C)C)=NO3)n2)cc1", "stereo": "stereo not given", "percent effect": 11.23}
{"compound": "Cc1cc(-c2nnn(CCNS(C)(=O)=O)n2)ccc1F", "percent effect": 10.94}

The first 5 entries again:

With O=C(NC(CC(F)(F)F)c1ccc(Cl)cc1)c1nc(=O)[nH][nH]1 (stereo not given) the screen gave -51.03%.
With Cc1nc(CN(C)Cc2cn[nH]c2-c2ccc(F)cc2)c[nH]1 the screen gave -12.38%.
With COC[C@@H]1CCC[C@]12CN(S(=O)(=O)c1cccs1)CCO2 the screen gave -59.39%.
With COc1ccc(C)cc1CNC(=O)C1=NN(c2ccccc2)C(=O)CN1 the screen gave 39.01%.
With O=C1CCCN1CCCNCc1cc(O)c2cccc(Cl)c2n1 the screen gave -4.911%.